Publication PMC12040762

By UniProt entry, the sequences of proteins in these tests, tags left out.
UniProt P29341: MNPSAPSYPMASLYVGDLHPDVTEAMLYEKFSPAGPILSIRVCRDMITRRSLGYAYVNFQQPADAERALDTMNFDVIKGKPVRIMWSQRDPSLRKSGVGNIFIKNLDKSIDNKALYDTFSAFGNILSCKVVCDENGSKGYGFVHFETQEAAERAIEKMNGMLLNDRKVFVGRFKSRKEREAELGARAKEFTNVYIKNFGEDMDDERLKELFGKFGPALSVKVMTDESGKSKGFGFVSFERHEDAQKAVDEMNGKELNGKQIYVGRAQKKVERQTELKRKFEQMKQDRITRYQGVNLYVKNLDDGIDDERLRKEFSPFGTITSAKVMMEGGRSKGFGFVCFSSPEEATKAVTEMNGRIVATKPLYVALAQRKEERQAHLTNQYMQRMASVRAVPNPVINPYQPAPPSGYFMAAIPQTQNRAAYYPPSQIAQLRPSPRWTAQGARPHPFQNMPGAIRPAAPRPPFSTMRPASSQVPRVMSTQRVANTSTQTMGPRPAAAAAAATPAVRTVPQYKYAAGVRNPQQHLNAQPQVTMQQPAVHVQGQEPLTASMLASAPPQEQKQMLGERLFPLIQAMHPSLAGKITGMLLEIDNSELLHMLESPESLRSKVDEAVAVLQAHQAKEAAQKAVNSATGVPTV

Target: T1, ADP-ribosylation factor collaborator (CARF) (mouse (endogenous in testis)) (UniProt Q8BI72)
T1 sequence: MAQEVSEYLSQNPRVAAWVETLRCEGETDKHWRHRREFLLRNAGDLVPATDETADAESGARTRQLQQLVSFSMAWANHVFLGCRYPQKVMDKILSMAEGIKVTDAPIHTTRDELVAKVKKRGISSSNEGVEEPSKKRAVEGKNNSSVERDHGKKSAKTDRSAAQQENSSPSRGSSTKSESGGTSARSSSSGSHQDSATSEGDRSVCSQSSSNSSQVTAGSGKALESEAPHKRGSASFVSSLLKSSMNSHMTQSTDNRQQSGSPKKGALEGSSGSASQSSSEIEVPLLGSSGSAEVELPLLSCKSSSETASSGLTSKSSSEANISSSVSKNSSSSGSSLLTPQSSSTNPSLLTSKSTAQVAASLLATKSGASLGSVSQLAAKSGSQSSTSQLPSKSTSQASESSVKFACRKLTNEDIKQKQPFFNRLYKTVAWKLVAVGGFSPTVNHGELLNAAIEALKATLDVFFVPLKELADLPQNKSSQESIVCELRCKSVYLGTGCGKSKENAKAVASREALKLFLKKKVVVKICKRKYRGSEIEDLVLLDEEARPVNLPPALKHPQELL
Test: affinity purification with mass spectrometry; testis protein extracts of wild-type and Carf-/- mice in IP buffer incubated with antibodies or control IgG at 4°C overnight, protein A and protein G Dynabeads 6 h; SDS-PAGE, differing bands cut for mass spectrometry

- binding: binds
Substance: poly-A binding protein cytoplasmic 1 (PABPC1) (from UniProt P29341 1-636)

Results are given in words; binding and its absence hold for the method and conditions named. In cells and extracts the contact can be indirect. A yes stands for co-enrichment or nearness to the bait. Other partners may have been found.
